1 substance from article PMC11289934 can be followed below.

By UniProt entry, the sequences of proteins in these tests, tags left out.
UniProt Q9Y6M1: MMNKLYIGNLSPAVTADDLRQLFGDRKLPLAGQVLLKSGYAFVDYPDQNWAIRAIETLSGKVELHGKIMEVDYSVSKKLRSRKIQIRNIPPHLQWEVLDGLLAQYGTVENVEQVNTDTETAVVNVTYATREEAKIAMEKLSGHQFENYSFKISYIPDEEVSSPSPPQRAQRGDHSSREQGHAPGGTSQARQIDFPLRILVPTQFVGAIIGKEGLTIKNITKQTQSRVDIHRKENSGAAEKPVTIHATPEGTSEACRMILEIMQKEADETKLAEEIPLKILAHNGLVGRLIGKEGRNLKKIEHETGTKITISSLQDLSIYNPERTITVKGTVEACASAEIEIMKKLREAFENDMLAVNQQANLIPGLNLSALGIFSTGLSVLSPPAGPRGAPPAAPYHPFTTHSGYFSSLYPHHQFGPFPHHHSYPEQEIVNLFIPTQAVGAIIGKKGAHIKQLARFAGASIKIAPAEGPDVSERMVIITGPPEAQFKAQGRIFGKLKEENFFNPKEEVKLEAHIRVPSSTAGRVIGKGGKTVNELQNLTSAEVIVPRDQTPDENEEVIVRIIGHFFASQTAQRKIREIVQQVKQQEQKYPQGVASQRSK
UniProt Q14258: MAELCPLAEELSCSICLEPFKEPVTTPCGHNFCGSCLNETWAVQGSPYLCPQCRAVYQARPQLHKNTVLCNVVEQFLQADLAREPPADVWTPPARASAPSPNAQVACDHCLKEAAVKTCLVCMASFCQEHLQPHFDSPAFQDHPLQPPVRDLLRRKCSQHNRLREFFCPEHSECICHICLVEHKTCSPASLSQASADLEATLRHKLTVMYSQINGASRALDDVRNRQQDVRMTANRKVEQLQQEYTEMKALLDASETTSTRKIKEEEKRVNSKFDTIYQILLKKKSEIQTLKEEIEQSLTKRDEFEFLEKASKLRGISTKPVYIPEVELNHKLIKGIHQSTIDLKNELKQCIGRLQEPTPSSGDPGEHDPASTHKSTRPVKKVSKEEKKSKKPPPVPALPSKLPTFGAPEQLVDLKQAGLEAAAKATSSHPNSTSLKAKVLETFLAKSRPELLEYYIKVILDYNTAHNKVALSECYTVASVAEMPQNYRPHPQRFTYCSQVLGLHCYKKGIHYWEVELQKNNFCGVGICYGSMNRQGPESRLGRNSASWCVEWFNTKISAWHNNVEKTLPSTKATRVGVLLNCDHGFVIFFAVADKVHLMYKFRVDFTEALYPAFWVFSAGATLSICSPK

The target of this test is IGF2BP2 (human (endogenous in MKN-45 and MKN-28)) (UniProt Q9Y6M1). Put plainly: co-IP; RIPA lysates with PMSF; anti-IGF2BP2 or anti-TRIM25, 2 h at room temperature, protein A/G PLUS-agarose overnight at 4 °C, Western blot; IgG as negative control; also in circRHBDD1-silenced MKN-45 and circRHBDD1-overexpressing MKN-28 cells (proteasome inhibition).

No constants are given. Whether binding was seen depends on the method and setting. Binding seen in cells or lysates may run through a third protein. Some binding calls cover weakened binding; strength is not graded here.

With “E3 ligase TRIM25 (from UniProt Q14258 1-630) (enzyme)”, the binding result is listed as “binds”.
